# At least one structure is not confirmed: it was looked up by name or label, or the drawing left a doubt.
# Tested on: Lewis lung carcinoma
# Experiment: Effect of dose of sucrose bis(platinum) complex on intraperitoneally implanted Lewis lung carcinoma in mice (Example 13)
# Type: in vivo
# Settings: 0.1 mg/mouse i.p., day 2, 4
# Description: The effect of dosage of the sucrose bis(platinum) complex on intraperitoneally implanted Lewis lung carcinoma cells was evaluated in mice. […] Administration of the complex (in 0.1 ml of distilled water) was effected on day 2 and day 4 after implantation.
compound,measurement,value
"N.N.NCC1OC2OC3(COC2C(O)C1O)OC(CN)C(O)C3O.[Cl][Pt][Cl].[Cl][Pt][Cl] (stereo not drawn) [Sample No. 6, N,N'-bis[cis-amminedichloroplatinato]-6,6'-diamino-6,6'-dideoxy-1',2-anhydrosucrose]",Survival days of individual mouse,"45, >50, >50, >50 days"
